Data on one substance can be found in patent publication US20130267025A1.

Sequences of proteins named here, by UniProt entry; tags and fusion partners are left off. A change or cut given only in a name is not applied to a line headed by its entry.
UniProt P63172: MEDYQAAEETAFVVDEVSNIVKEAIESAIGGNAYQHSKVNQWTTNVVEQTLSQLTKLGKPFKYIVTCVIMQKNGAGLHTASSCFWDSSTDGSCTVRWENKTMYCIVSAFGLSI
UniProt Q9UBP4: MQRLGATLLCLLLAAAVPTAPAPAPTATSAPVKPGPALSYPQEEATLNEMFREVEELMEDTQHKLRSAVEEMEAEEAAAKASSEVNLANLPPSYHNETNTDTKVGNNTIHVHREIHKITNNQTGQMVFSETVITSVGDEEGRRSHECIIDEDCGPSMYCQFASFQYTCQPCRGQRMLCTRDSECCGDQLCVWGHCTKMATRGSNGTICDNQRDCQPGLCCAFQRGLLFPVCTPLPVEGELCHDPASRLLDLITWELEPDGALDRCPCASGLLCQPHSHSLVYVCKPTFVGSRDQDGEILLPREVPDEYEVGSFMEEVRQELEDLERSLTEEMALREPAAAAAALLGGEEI

The target in assay [1] is V5-tagged Tctex-1 (V5-Tctex-1 fusion protein), expressed from pcDNA3.2/V5/GW/D-TOPO (human) (UniProt P63172). Put plainly: co-immunoprecipitation and Western blot (legend of FIG. 18B).
Assay [2] shares this target. Briefly: co-immunoprecipitation with anti-Myc antibody from 293T lysates, Western blot with V5 antibody.

These are yes or no findings as the source states them, for the method shown. In cells and extracts the contact can be indirect. Some binding calls cover weakened binding; strength is not graded here.

In the case of “Myc-tagged REIC/Dkk-3 (Myc-REIC/Dkk-3 fusion protein), expressed in 293T cells (from UniProt Q9UBP4 22-350)”, the binding result in assay [1] and in assay [2] was “binds” in each case.
